In patent EP1283052A1, “Pharmaceutical composition containing caspase-8 and /or caspase-9 useful for overcoming glucocorticoid- and cancer therapy-induced apoptosis of tumours” (Deutsches Krebsforschungszentrum Stiftung des öffentlichen …, priority 2001, dated 2003):
For at least one compound, name, drawing or mass did not settle the structure.

System: apoptosome
Test: Co-immunoprecipitation of apoptosome proteins with Apaf-1 in P5 cells
Assay type: cell-based, human
Conditions: presence of DEX, Fig. 5b
Experimental: • (a) P693 and CEM cells were treated with cisplatin (2 µg/ml) in the absence or presence of DEX (1 µM) as indicated. 24 and 48 h following treatment cells were lysed and caspase-9 activity was determined using a fluorescent caspase-9 assay and spectroscopy. • (b) P5 and CEM cells were treated as described above. 24 h after stimulation Apaf-1 was immunoprecipitated from the cell extracts using a […]. Aliquotes of the precipitates were separated by three different gels and analysed by Western blotting using rabbit polyclonal Apaf-1, mAb cytochrome c or caspase-9 antibodies. The antibody heavy chain band (IgGH) ensures equal conditions. […]
• (A) Cell culture. […] The mice were given 0.28 mg/L DEX in drinking water, and the amount of water consumed was monitored. […] The tumour volumes were measured using callipers, and calculated using, as an approximation, the formula for volume of a hemi-ellipsoid: π(width^2 x length)/6. […] Early apoptotic changes were identified by staining of cells with fluoresceinthiocyanate (FITC)-conjugated annexin V and propidium iodide (Becton Dickinson, Heidelberg, Germany) and analysed by flow cytometry (FACScan, Becton Dickinson) as described (Herr et al., EMBO J. 16 (1997), 6200-6208) • (E) Immunohistochemistry. […] Bound antibodies were detected by FITC conjugated anti-mouse or anti-rabbit IgG (Molecular Probes Europe, Leiden, The Netherlands). […]

C[C@@H]1C[C@H]2[C@@H]3CCC4=CC(=O)C=C[C@]4(C)[C@@]3(F)[C@@H](O)C[C@]2(C)[C@@]1(O)C(=O)CO [DEX, dexamethasone]
amounts of immunoprecipitated apoptosome members: strongly inhibited
